For test [1], the target named is T1, Caperα, endogenous mouse (mouse (endogenous in e10.5 embryos)) (UniProt Q8VH51).
T1 sequence: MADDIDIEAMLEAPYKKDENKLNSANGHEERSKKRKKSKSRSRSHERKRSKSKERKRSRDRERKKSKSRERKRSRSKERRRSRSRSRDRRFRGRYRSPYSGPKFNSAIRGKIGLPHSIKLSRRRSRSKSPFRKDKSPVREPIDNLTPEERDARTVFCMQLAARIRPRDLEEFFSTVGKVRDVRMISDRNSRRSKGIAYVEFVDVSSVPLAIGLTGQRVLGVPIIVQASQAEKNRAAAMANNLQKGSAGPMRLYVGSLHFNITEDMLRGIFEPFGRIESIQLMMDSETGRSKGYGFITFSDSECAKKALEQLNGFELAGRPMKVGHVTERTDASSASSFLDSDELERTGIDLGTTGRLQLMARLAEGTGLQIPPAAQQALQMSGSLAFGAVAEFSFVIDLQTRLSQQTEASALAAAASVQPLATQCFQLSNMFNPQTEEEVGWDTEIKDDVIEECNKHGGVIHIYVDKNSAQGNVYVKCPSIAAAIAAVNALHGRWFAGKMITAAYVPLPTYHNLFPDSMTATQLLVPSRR
In words: co-IP; e10.5 mouse embryo lysates; IP with anti-Caperα, immunoblot with anti-Tbx3; Dynabeads Protein G, 4°C. (In general: Immunoblotting shows a protein as a band on a membrane.)

Sequences of proteins named here, by UniProt entry; tags and fusion partners are left off.
UniProt Q14498: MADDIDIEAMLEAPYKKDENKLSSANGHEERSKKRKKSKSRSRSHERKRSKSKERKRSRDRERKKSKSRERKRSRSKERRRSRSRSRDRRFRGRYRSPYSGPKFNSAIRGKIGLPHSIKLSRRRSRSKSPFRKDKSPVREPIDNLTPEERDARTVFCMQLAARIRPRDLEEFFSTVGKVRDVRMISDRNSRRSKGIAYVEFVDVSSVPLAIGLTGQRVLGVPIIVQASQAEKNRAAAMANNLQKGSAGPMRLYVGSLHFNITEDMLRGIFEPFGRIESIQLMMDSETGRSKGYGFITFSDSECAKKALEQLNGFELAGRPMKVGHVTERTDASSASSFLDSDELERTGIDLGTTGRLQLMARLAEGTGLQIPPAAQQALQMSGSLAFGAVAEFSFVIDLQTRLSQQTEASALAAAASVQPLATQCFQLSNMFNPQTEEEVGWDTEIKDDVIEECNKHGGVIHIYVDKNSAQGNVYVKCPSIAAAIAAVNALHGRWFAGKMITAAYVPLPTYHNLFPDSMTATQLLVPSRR

In test [2] the target is T2, CAPERα (Coactivator of AP1 and Estrogen Receptor), endogenous human (human (endogenous in HEK293 and HFFs)) (UniProt Q14498).
T2 sequence: T1 sequence with N23S
Description: co-IP; HEK293 cells transfected with anti-TBX3 shRNA and expressing untagged mouse Tbx3 proteins; IP with anti-CAPERα (endogenous), immunoblot with anti-Tbx3.

Numbering of substitutions follows the chain as printed. In names and notes the source's numbering stands. Results are given in words; binding and its absence hold for the method and conditions named. Binding seen in cells or lysates may run through a third protein. Some binding calls cover weakened binding; strength is not graded here. For part of these data: Where a sequence is shown, tags or fusion partners need not be part of it.

B1: Tbx3, endogenous mouse (protein, UniProt P70324-2 1-721)
chain: MSLSMRDPVIPGTSMAYHPFLPHRAPDFAMSAVLGHQPPFFPALTLPPNGAAALSLPGALAKPIMDQLVGAAETGIPFSSLGPQAHLRPLKTMEPEEDVEDDPKVHLEAKELWDQFHKRGTEMVITKSGRRMFPPFKVRCSGLDKKAKYILLMDIIAADDCRYKFHNSRWMVAGKADPEMPKRMYIHPDSPATGEQWMSKVVTFHKLKLTNNISDKHGFTILNSMHKYQPRFHIVRANDILKLPYSTFRTYLFPETEFIAVTAYQNDKITQLKIDNNPFAKGFRDTGNGRREKRKQLTLQSMRVFEERHKKETSDESSSEQAAFNCFAQASSPAVSIVGTSNLKDLCPSEAESDAEAESKEEHGPEACDAAKISTTTAEEPGRDKGSPATRAQLFPAEPSRARDTARLDKASPDSRHSPATISSSTRVPGADERRSPGREGPVATKVDEARAIPAKDAFAPLSVQTDATAHLAQGPLPGLGFAPGLAGQQFFNGHPLFLHPGQFAMGGAFSSMAAGMGPLLATVSGASTGVSGLESTAMASAAAAQGLSGASAATLPFHLQQHVLASQGLAMSPFGSLFPYPYTYMAAAAAASTAAASSSVHRHPFLNLNSMRPRLRYSPYSIPVPVPDSSSLLATALPSMASAAGPLDGKAAALAASPASVAVDSGSELNSRSSTLSSGSVSLSPKLCSEKEAATSELQSIQRLVSGLEAKPDRSCSGSP
As to B1, in test [1], the binding entry is listed as “binds”.

B2: wild-type mouse Tbx3, overexpressed, untagged (protein, UniProt P70324-2 1-721)
chain: B1 chain
Take B2: the binding result in test [2] was “binds”.

B3: mouse Tbx3 L143P (DNA binding domain point mutant) (protein, UniProt P70324-2 1-721)
chain: B1 chain with L143P
Take B3: the binding entry in test [2] was “binds”.

These data come from paper PMC4071561.
